{"source": "PubChem BioAssay AID1259308 (NCATS, 2017)", "purpose": "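Knock-downs that increase output of a recombinant reporter protein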 (primary screen)", "system": "human HEK293 embryonic kidney cells stably expressing firefly luciferase (HEK-CMV-Luc2-Hygro)", "reagents": "single siRNA against human genes, 0.8 pmol siRNA per well", "timing": "72 h", "measured": "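Luciferase light (ONE-Glo) measured on one replicate plate set and viability (CellTiter-Glo) on the other, scaled to a negative control siRNA, with robust z-scores and luciferase per cell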", "direction": "total luciferase, z-score and total luciferase, % of control: higher = more reporter protein produced", "rule for the call": "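An siRNA counts as active if its total luciferase robust z-score exceeds 3; genes with two or more such siRNAs out of three were retested with fresh siRNAs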", "meaning of the calls": "active = raised luciferase; inactive = no rise", "note": "The deposit covers about 59,000 reagents; this is a part drawn at random. About 1,510 of all reagents (2.6%) were called active. 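Calls use total luciferase alone and ignore viability, so some active siRNAs may act by altering cell number.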 Entries without a mark were called inactive. Reagents against one gene are numbered here. Further read-outs or replicates are left out here."}
{"target":"NTNG2 (netrin G2)","reagent no.":1,"total luciferase, z-score":-2.41,"total luciferase, % of control":33.9}
{"target":"NTNG2 (netrin G2)","reagent no.":2,"total luciferase, z-score":-0.352,"total luciferase, % of control":74.9}
{"target":"NTNG2 (netrin G2)","reagent no.":3,"total luciferase, z-score":1.12,"total luciferase, % of control":104}
{"target":"S100A12 (S100 calcium binding protein A12)","reagent no.":1,"total luciferase, z-score":-0.699,"total luciferase, % of control":68}
{"target":"S100A12 (S100 calcium binding protein A12)","reagent no.":2,"total luciferase, z-score":0.624,"total luciferase, % of control":94.3}
{"target":"S100A12 (S100 calcium binding protein A12)","reagent no.":3,"total luciferase, z-score":0.516,"total luciferase, % of control":92.2}

2 entries from above, reformatted:
{"target": "NTNG2 (netrin G2)", "reagent no.": 2, "total luciferase, z-score": -0.352, "total luciferase, % of control": 74.9}
{"target": "NTNG2 (netrin G2)", "reagent no.": 3, "total luciferase, z-score": 1.12, "total luciferase, % of control": 104}

Next results follow:
{"target":"SDC2 (syndecan 2)","reagent no.":1,"total luciferase, z-score":0.0375,"total luciferase, % of control":82.6}
{"target":"SDC2 (syndecan 2)","reagent no.":2,"total luciferase, z-score":-1.05,"total luciferase, % of control":61.1}
{"target":"SDC2 (syndecan 2)","reagent no.":3,"total luciferase, z-score":1.67,"total luciferase, % of control":115}
{"target":"TNIP3 (TNFAIP3 interacting protein 3)","reagent no.":1,"total luciferase, z-score":0.583,"total luciferase, % of control":93.5}
{"target":"TNIP3 (TNFAIP3 interacting protein 3)","reagent no.":2,"total luciferase, z-score":0.786,"total luciferase, % of control":97.5}
{"target":"TNIP3 (TNFAIP3 interacting protein 3)","reagent no.":3,"total luciferase, z-score":0.246,"total luciferase, % of control":86.8}
